For at least one compound, name, drawing or mass did not settle the structure.
Biological target: T1, androgen receptor (AR) (Homo sapiens, UniProt P10275)
T1 construct: expressed in transfected cells
T1 sequence (P10275 1-920): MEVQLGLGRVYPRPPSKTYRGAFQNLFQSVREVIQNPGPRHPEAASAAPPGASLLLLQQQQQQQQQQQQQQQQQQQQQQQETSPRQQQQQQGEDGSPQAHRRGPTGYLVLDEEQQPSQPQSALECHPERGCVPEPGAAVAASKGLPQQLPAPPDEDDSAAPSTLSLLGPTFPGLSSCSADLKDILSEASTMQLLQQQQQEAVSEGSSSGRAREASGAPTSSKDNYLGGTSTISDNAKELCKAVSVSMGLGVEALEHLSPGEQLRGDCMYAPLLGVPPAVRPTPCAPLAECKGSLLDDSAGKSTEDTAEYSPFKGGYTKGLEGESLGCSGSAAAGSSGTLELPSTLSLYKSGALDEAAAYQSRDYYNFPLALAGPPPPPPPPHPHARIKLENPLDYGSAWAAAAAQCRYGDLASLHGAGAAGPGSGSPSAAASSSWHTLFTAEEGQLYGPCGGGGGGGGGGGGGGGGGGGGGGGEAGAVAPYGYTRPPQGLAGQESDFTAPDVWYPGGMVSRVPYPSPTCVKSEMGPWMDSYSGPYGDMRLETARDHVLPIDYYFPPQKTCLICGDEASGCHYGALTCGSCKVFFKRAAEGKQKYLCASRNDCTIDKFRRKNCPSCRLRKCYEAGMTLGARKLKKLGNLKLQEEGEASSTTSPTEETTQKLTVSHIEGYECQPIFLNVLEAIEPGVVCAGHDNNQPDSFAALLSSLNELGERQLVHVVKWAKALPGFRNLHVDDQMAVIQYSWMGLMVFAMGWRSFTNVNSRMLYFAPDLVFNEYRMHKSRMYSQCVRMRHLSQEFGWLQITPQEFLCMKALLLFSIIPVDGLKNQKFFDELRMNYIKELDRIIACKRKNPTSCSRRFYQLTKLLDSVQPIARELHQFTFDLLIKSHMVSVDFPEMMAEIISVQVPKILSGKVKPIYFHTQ
Assay: AR luciferase reporter assay in U2OS cells
Type: cell-based
Details: testing range 10 μmol·l^−1 to 1 nmol·l^−1

COc1ccc(CC[C@@H]2CC(=O)[C@@]3(C)CC[C@@H]4c5ccc(O)cc5CC[C@H]4[C@H]23)cc1OC [Compound 11, 3-Hydroxy-15β-(3,4-dimethoxyphenethyl)-estra-1,3,5(10)-trien-17-one]
AR antagonism in words: antagonists of both types of receptors

CC(C)(C)Oc1ccc(CC[C@@H]2CC(=O)[C@@]3(C)CC[C@@H]4c5ccc(O)cc5CC[C@H]4[C@H]23)cc1 [Compound 13, 15β-(4-t-Butoxyphenethyl)-3-hydroxy-estra-1,3,5(10)-trien-17-one]
AR antagonism in words: antagonists of both types of receptors
